Substitutions are numbered along the chain they refer to. These are yes or no findings as the source states them, for the method shown. Some entries that bind do so weakly or less than the wild type. Where a sequence is shown, tags or fusion partners need not be part of it.
Key:
Test in all cases: co-purification (Ni2+ affinity chromatography, then SEC); His-tagged Kar9 and untagged Bim1 expressed separately in bacteria, mixed before lysis in 20 mM Tris-HCl pH 7.5, 500 mM NaCl; Ni2+-Sepharose at 4 °C, then Superdex size exclusion
[1] = target: T1, Full-length N-terminally hexa-histidine-tagged S. cerevisiae Kar9-αβγ^− (all three self-association interfaces mutated) (S. cerevisiae) (UniProt P32526)
T1 sequence: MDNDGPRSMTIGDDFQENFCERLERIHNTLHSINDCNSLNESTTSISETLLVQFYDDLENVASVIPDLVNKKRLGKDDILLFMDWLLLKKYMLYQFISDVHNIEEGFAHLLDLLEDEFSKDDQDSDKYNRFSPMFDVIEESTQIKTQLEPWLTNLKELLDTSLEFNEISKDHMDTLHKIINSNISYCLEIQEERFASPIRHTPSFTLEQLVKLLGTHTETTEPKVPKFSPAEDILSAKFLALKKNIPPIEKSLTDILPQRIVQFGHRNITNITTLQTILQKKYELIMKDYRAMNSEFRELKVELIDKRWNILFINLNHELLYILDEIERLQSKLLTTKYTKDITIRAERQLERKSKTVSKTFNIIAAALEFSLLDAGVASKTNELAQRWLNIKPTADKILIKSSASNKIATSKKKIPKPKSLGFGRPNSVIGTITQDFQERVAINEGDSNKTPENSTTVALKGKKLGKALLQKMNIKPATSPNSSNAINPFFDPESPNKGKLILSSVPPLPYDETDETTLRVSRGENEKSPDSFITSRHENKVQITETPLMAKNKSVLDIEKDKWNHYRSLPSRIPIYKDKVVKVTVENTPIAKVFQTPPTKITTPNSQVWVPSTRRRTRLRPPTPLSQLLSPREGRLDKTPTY

[2] = target: T2, Full-length N-terminally hexa-histidine-tagged S. cerevisiae Kar9-α^− (Phe292Ala/Leu347Ala) (S. cerevisiae) (UniProt P32526)
T2 sequence: T1 sequence with A237R, A241N, A366Y, A367R

[3] = target: T3, Full-length N-terminally hexa-histidine-tagged S. cerevisiae Kar9-β^− (Arg237Ala/Asn241Ala) (S. cerevisiae) (UniProt P32526)
T3 sequence: T1 sequence with A292F, A347L, A366Y, A367R

[4] = target: T4, Full-length N-terminally hexa-histidine-tagged S. cerevisiae Kar9-γ^− (Tyr366Ala/Arg367Ala) (S. cerevisiae) (UniProt P32526)
T4 sequence: T1 sequence with A237R, A241N, A292F, A347L

[5] = target: T5, Full-length wild-type N-terminally hexa-histidine-tagged S. cerevisiae Kar9 (S. cerevisiae) (UniProt P32526)
T5 sequence: T1 sequence with A237R, A241N, A292F, A347L, A366Y, A367R

binding [1]: binds
binding [2]: binds
binding [3]: binds
binding [4]: binds
binding [5]: binds
B1: Full-length S. cerevisiae Bim1, untagged (protein, UniProt P40013 1-344)
chain: MSAGIGESRTELLTWLNGLLNLNYKKIEECGTGAAYCQIMDSIYGDLPMNRVKFNATAEYEFQTNYKILQSCFSRHGIEKTVYVDKLIRCKFQDNLEFLQWLKKHWIRHKDESVYDPDARRKYRPIITNNSATKPRTVSNPTTAKRSSSTGTGSAMSGGLATRHSSLGINGSRKTSVTQGQLVAIQAELTKSQETIGSLNEEIEQYKGTVSTLEIEREFYFNKLRDIEILVHTTQDLINEGVYKFNDETITGHGNGNGGALLRFVKKVESILYATAEGFEMNDGEDELNDKNLGEHGTVPNQGGYANSNGEVNGNEGSNHDVIMQNDEGEVGVSNNLIIDEETF
